# Results: publication PMC5841321
# T1: E3 ubiquitin-protein ligase Midline-1 (UniProt O15344)
# T1 sequence: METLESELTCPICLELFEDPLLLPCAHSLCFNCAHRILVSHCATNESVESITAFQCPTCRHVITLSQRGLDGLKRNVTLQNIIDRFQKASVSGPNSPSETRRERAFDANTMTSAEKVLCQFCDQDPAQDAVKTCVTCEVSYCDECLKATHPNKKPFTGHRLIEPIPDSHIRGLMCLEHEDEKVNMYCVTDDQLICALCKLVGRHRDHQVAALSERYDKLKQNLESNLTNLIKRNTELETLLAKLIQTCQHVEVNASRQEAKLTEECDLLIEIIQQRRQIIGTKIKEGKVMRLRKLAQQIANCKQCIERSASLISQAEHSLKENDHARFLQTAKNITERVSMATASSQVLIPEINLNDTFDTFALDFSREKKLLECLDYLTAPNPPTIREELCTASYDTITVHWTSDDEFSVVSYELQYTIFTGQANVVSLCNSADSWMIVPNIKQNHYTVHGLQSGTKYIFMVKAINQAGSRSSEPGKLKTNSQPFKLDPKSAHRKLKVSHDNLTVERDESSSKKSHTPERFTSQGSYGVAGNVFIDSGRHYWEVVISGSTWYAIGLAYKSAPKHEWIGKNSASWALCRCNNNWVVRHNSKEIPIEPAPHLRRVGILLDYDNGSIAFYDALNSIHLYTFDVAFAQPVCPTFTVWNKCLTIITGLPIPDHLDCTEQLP
# B1: Splicing factor, arginine/serine-rich 15 (protein, UniProt O95104 1-1147)
# chain: MDAVNAFNQELFSLMDMKPPISRAKMILITKAAIKAIKLYKHVVQIVEKFIKKCKPEYKVPGLYVIDSIVRQSRHQFGTDKDVFGPRFSKNITATFQYLYLCPSEDKSKIVRVLNLWQKNGVFKIEIIQPLLDMAAGTSNAAPVAENVTNNEGSPPPPVKVSSEPPTQATPNSVPAVPQLPSSDAFAAVAQLFQTTQGQQLQQILQTFQQPPKPQSPALDNAVMAQVQAITAQLKTTPTQPSEQKAAFPPPEQKTAFDKKLLDRFDYDDEPEAVEESKKEDTTAVTTTAPAAAVPPAPTATVPAAAAPAAASPPPPQAPFGFPGDGMQQPAYTQHQNMDQFQPRMMGIQQDPMHHQVPLPPNGQMPGFGLLPTPPFPPMAQPVIPPTPPVQQPFQASFQAQNEPLTQKPHQQEMEVEQPCIQEVKRHMSDNRKSRSRSASRSPKRRRSRSGSRSRRSRHRRSRSRSRDRRRHSPRSRSQERRDREKERERRQKGLPQVKPETASVCSTTLWVGQLDKRTTQQDVASLLEEFGPIESINMIPPRGCAYIVMVHRQDAYRALQKLSRGNYKVNQKSIKIAWALNKGIKADYKQYWDVELGVTYIPWDKVKPEELESFCEGGMLDSDTLNPDWKGIPKKPENEVAQNGGAETSHTEPVSPIPKPLPVPVPPIPVPAPITVPPPQVPPHQPGPPVVGALQPPAFTPPLGIPPPGFGPGVPPPPPPPPFLRPGFNPMHLPPGFLPPGPPPPITPPVSIPPPHTPPISIPNSTIAGINEDTTKDLSIGNPIPTVVSGARGNAESGDSVKMYGSAVPPAAPTNLPTPPVTQPVSLLGTQGVAPGPVIGLQAPSTGLLGARPGLIPLQRPPGMPPPHLQRFPLMPPRPMPPHMMHRGPPPGPGGFAMPPPHGMKGPFPPHGPFVRPGGMPGLGGPGPGPGGPEDRDGRQQPPQQPQQQPQPQAPQQPQQQQQQQPPPSQQPPPTQQQPQQFRNDNRQQFNSGRDQERFGRRSFGNRVENDRERYGNRNDDRDNSNRDRREWGRRSPDRDRHRDLEERNRRSSGHRDRERDSRDRESRREKEEARGKEKPEVTDRAGGNKTVEPPISQVGNVDTASELEKGVSEAAVLKPSEELPAEATSSVEPEKDSGSAAEAPR
# B2: Cleavage and polyadenylation specificity factor subunit 7 (protein, UniProt Q8N684 1-471)
# chain: MSEGVDLIDIYADEEFNQDPEFNNTDQIDLYDDVLTATSQPSDDRSSSTEPPPPVRQEPSPKPNNKTPAILYTYSGLRNRRAAVYVGSFSWWTTDQQLIQVIRSIGVYDVVELKFAENRANGQSKGYAEVVVASENSVHKLLELLPGKVLNGEKVDVRPATRQNLSQFEAQARKRECVRVPRGGIPPRAHSRDSSDSADGRATPSENLVPSSARVDKPPSVLPYFNRPPSALPLMGLPPPPIPPPPPLSSSFGVPPPPPGIHYQHLMPPPPRLPPHLAVPPPGAIPPALHLNPAFFPPPNATVGPPPDTYMKASAPYNHHGSRDSGPPPSTVSEAEFEDIMKRNRAISSSAISKAVSGASAGDYSDAIETLLTAIAVIKQSRVANDERCRVLISSLKDCLHGIEAKSYSVGASGSSSRKRHRSRERSPSRSRESSRRHRDLLHNEDRHDDYFQERNREHERHRDRERDRHH
# B3: U5 small nuclear ribonucleoprotein 40 kDa protein (protein, UniProt Q96DI7 1-357)
# chain: MIEQQKRKGPELPLVPVKRQRHELLLGAGSGPGAGQQQATPGALLQAGPPRCSSLQAPIMLLSGHEGEVYCCKFHPNGSTLASAGFDRLILLWNVYGDCDNYATLKGHSGAVMELHYNTDGSMLFSASTDKTVAVWDSETGERVKRLKGHTSFVNSCYPARRGPQLVCTGSDDGTVKLWDIRKKAAIQTFQNTYQVLAVTFNDTSDQIISGGIDNDIKVWDLRQNKLTYTMRGHADSVTGLSLSSEGSYLLSNAMDNTVRVWDVRPFAPKERCVKIFQGNVHNFEKNLLRCSWSPDGSKIAAGSADRFVYVWDTTSRRILYKLPGHAGSINEVAFHPDEPIIISASSDKRLYMGEIQ
# B4: Serine/arginine repetitive matrix protein 1 (protein, UniProt Q8IYB3 1-904)
# chain: MDAGFFRGTSAEQDNRFSNKQKKLLKQLKFAECLEKKVDMSKVNLEVIKPWITKRVTEILGFEDDVVIEFIFNQLEVKNPDSKMMQINLTGFLNGKNAREFMGELWPLLLSAQENIAGIPSAFLELKKEEIKQRQIEQEKLASMKKQDEDKDKRDKEEKESSREKRERSRSPRRRKSRSPSPRRRSSPVRRERKRSHSRSPRHRTKSRSPSPAPEKKEKTPELPEPSVKVKEPSVQEATSTSDILKVPKPEPIPEPKEPSPEKNSKKEKEKEKTRPRSRSRSKSRSRTRSRSPSHTRPRRRHRSRSRSYSPRRRPSPRRRPSPRRRTPPRRMPPPPRHRRSRSPVRRRRRSSASLSGSSSSSSSSRSRSPPKKPPKRTSSPPRKTRRLSPSASPPRRRHRPSPPATPPPKTRHSPTPQQSNRTRKSRVSVSPGRTSGKVTKHKGTEKRESPSPAPKPRKVELSESEEDKGGKMAAADSVQQRRQYRRQNQQSSSDSGSSSSSEDERPKRSHVKNGEVGRRRRHSPSRSASPSPRKRQKETSPRGRRRRSPSPPPTRRRRSPSPAPPPRRRRTPTPPPRRRTPSPPPRRRSPSPRRYSPPIQRRYSPSPPPKRRTASPPPPPKRRASPSPPPKRRVSHSPPPKQRSSPVTKRRSPSLSSKHRKGSSPSRSTREARSPQPNKRHSPSPRPRAPQTSSSPPPVRRGASSSPQRRQSPSPSTRPIRRVSRTPEPKKIKKAASPSPQSVRRVSSSRSVSGSPEPAAKKPPAPPSPVQSQSPSTNWSPAVPVKKAKSPTPSPSPPRNSDQEGGGKKKKKKKDKKHKKDKKHKKHKKHKKEKAVAAAAAAAVTPAAIAAATTTLAQEEPVAAPEPKKETESEAEDNLDDLEKHLREKALRSMRKAQVSPQS
# B5: Serrate RNA effector molecule homolog (protein, UniProt Q9BXP5 1-876)
# chain: MGDSDDEYDRRRRDKFRRERSDYDRSRERDERRRGDDWNDREWDRGRERRSRGEYRDYDRNRRERFSPPRHELSPPQKRMRRDWDEHSSDPYHSGYEMPYAGGGGGPTYGPPQPWGHPDVHIMQHHVLPIQARLGSIAEIDLGVPPPVMKTFKEFLLSLDDSVDETEAVKRYNDYKLDFRRQQMQDFFLAHKDEEWFRSKYHPDEVGKRRQEARGALQNRLRVFLSLMETGWFDNLLLDIDKADAIVKMLDAAVIKMEGGTENDLRILEQEEEEEQAGKPGEPSKKEEGRAGAGLGDGERKTNDKDEKKEDGKQAENDSSNDDKTKKSEGDGDKEEKKEDSEKEAKKSSKKRNRKHSGDDSFDEGSVSESESESESGQAEEEKEEAEEALKEKEKPKEEEWEKPKDAAGLECKPRPLHKTCSLFMRNIAPNISRAEIISLCKRYPGFMRVALSEPQPERRFFRRGWVTFDRSVNIKEICWNLQNIRLRECELSPGVNRDLTRRVRNINGITQHKQIVRNDIKLAAKLIHTLDDRTQLWASEPGTPPLPTSLPSQNPILKNITDYLIEEVSAEEEELLGSSGGAPPEEPPKEGNPAEINVERDEKLIKVLDKLLLYLRIVHSLDYYNTCEYPNEDEMPNRCGIIHVRGPMPPNRISHGEVLEWQKTFEEKLTPLLSVRESLSEEEAQKMGRKDPEQEVEKFVTSNTQELGKDKWLCPLSGKKFKGPEFVRKHIFNKHAEKIEEVKKEVAFFNNFLTDAKRPALPEIKPAQPPGPAQILPPGLTPGLPYPHQTPQGLMPYGQPRPPILGYGAGAVRPAVPTGGPPYPHAPYGAGRGNYDAFRGQGGYPGKPRNRMVRGDPRAIVEYRDLDAPDDVDFF
# B6: Serine/arginine-rich splicing factor 2 (protein, UniProt Q01130 1-221)
# chain: MSYGRPPPDVEGMTSLKVDNLTYRTSPDTLRRVFEKYGRVGDVYIPRDRYTKESRGFAFVRFHDKRDAEDAMDAMDGAVLDGRELRVQMARYGRPPDSHHSRRGPPPRRYGGGGYGRRSRSPRRRRRSRSRSRSRSRSRSRSRYSRSKSRSRTRSRSRSTSKSRSARRSKSKSSSVSRSRSRSRSRSRSRSPPPVSKRESKSRSRSKSPPKSPEEEGAVSS
# B7: Serine/arginine-rich splicing factor 3 (protein, UniProt P84103 1-164)
# chain: MHRDSCPLDCKVYVGNLGNNGNKTELERAFGYYGPLRSVWVARNPPGFAFVEFEDPRDAADAVRELDGRTLCGCRVRVELSNGEKRSRNRGPPPSWGRRPRDDYRRRSPPPRRRSPRRRSFSRSRSRSLSRDRRRERSLSRERNHKPSRSFSRSRSRSRSNERK
# B8: Very-long-chain enoyl-CoA reductase (protein, UniProt Q9NZ01 1-308)
# chain: MKHYEVEILDAKTREKLCFLDKVEPHATIAEIKNLFTKTHPQWYPARQSLRLDPKGKSLKDEDVLQKLPVGTTATLYFRDLGAQISWVTVFLTEYAGPLFIYLLFYFRVPFIYGHKYDFTSSRHTVVHLACICHSFHYIKRLLETLFVHRFSHGTMPLRNIFKNCTYYWGFAAWMAYYINHPLYTPPTYGAQQVKLALAIFVICQLGNFSIHMALRDLRPAGSKTRKIPYPTKNPFTWLFLLVSCPNYTYEVGSWIGFAIMTQCLPVALFSLVGFTQMTIWAKGKHRSYLKEFRDYPPLRMPIIPFLL
# Target: T1, E3 ubiquitin-protein ligase Midline-1
# Assay: affinity purification with mass spectrometry; MID1-FLAG expressed in HEK293T, lysate in TKM buffer (20 mM Tris pH 7.4, 100 mM KCl, 5 mM MgCl2, 0.5% NP40, 1 mM DTT), anti-FLAG M1 agarose overnight at 4 °C, 6 washes; untransfected cells as control; Q-Exactive, MaxQuant, 1% FDR
row,Binder,binding
1,B1,binds
2,B2,binds
3,B3,binds
4,B4,binds
5,B5,binds
6,B6,binds
7,B7,binds
8,B8,binds

# No constants are given. Whether binding was seen depends on the method and setting. Binding seen in cells or lysates may run through a third protein. Here binding means that the protein was enriched with, or labelled near, the bait; the list need not be complete.
